From PubChem BioAssay AID504444 (National Center for Advancing Translational Sciences (NCATS), 2011)
Screen size: about 360,000 compounds; about 7,500 (2.1%) were called active. This list was built around the results that the source calls inconclusive (neither active nor inactive); the mix of calls is not that of the screen. Calls come from the whole dose curve; as a rule, active = well fitted inhibition curve with a large enough effect; inconclusive = small, poorly fitted or top-dose-only effect, or effect the other way; inactive = flat fitted curve, though single readings scatter. Potencies of inconclusive entries are doubtful fits and often do not repeat.

Test: Nrf2 qHTS screen for inhibitors; note: nearly all actives have a fitted effect of over 60% in size
Settings: A549 ARE-Fluc reporter, luciferase luminescence, 18-24 h; activity change, negative = inhibition: at 46 µM (top of the series)
Method in brief: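 A549 ARE_Fluc cells, 5000/well, 5% FBS OPTI-MEM; compounds in dose-response, 18-24 h at 37 °C/5% CO2; CellTiter-Fluor viability read (Ex 405/Em 525), then BugLite luciferase luminescence = Nrf2 activity.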
% is set by controls: 0 for no effect and ±100 for the full control effect; potency is the fitted concentration of half-maximal effect.

**Q.** With CCCc1nc(NCc2ccccn2)c2nnn(Cc3ccccc3F)c2n1 as the compound, how does the Potency read?
**A.** The Potency was inconclusive: 14.6 µM [falling, partial curve, poor fit].

**Q.** With O=C(Oc1c(Cl)cc(Cl)c2cccnc12)c1cccs1 as the compound, how does the Potency read?
**A.** The Potency was inconclusive: 29.1 µM [falling, single point].

**Q.** For CS(=O)(=O)c1ccc2nc(NC(=O)c3cccc([N+](=O)[O-])c3)sc2c1, which Potency is on record?
**A.** The Potency was inconclusive: 16.4 µM [activator, partial curve].

**Q.** Which Potency does the source give for COc1ccccc1C(=O)N/N=C1/NC(=O)CC(C(=O)Nc2ccccc2)S1 (stereo not given) here?
**A.** Its Potency is inconclusive: 29.1 µM [falling, single point].

**Q.** For Cc1nc(N2CCN(c3ccccn3)CC2)c2c(C)c(C(=O)N3CCN(c4ccccc4F)CC3)sc2n1, which Potency is on record?
**A.** The Potency was inconclusive: 7.31 µM [falling, partial curve].

**Q.** For COc1ccc(OC)c(C2=Nn3c(nnc3-c3ccc(OC)c(OC)c3)SC2)c1, which Potency is on record?
**A.** Its Potency is inconclusive: 13 µM [falling, partial curve].

**Q.** Which Potency does the source give for COc1ccc(CCNc2oc(Cc3cccc4ccccc34)nc2C#N)cc1OC here?
**A.** Its Potency is active: 20.6 µM.

**Q.** With COC(=O)c1cccc(NS(=O)(=O)c2ccc(OC)c(OC)c2)c1C as the compound, how does the Potency read?
**A.** The Potency was inconclusive: 14.6 µM [falling, single point].

**Q.** With CC1CCN(C(=O)c2ccc(CNS(=O)(=O)c3ccc(C(C)(C)C)cc3)cc2)CC1 as the compound, how does the Potency read?
**A.** Its Potency is inconclusive: 29.1 µM [falling, single point].

**Q.** Which “activity change, negative = inhibition” value does the source give for O=C(CN1C(=O)C2(SCC(=O)N2c2ccc(F)cc2)c2ccccc21)NC1CCCCC1 (stereo not given) here?
**A.** Its value is inactive: 26.4%.

**Q.** With Cc1ccc(S(=O)(=O)N(C)c2ccc(OCC(=O)Nc3ccc(S(C)(=O)=O)cc3)cc2)cc1 as the compound, how does the Potency read?
**A.** Its Potency is inconclusive: 29.1 µM [falling, partial curve, poor fit].

**Q.** With CC(C)(C)C1(C)OC(=O)C(=Cc2ccc(OCC(=O)Nc3ccccc3)cc2)C(=O)O1 (stereo not given) as the compound, how does the Potency read?
**A.** The Potency was inconclusive: 20.6 µM [activator, partial curve, poor fit].

**Q.** With O=C(COc1ccc(Cl)cc1)N1CCN(c2ccc([N+](=O)[O-])c(N3CCCCC3)c2)CC1 as the compound, how does the Potency read?
**A.** Its Potency is inconclusive: 29.1 µM [falling, single point].

**Q.** Which Potency does the source give for CCC(=O)Nc1c(S(=O)(=O)c2ccc(C)cc2)c2nc3ccccc3nc2n1C(C)c1ccccc1 (stereo not given) here?
**A.** The Potency was inconclusive: 18.4 µM [falling, single point].

**Q.** Which Potency does the source give for CC1=C(c2ccc(C)c(C)c2)S(=O)(=O)N(Cc2ccc(C(=O)Nc3cc(F)ccc3F)cc2)C1=O here?
**A.** Its Potency is inconclusive: 29.1 µM [activator, single point].

**Q.** Which “activity change, negative = inhibition” value does the source give for COC(=O)C1=C(C)NC(=S)NC1c1ccc(-c2cc(Cl)ccc2Cl)o1 (stereo not given) here?
**A.** The value was inactive: -19.3%.

**Q.** Which Potency does the source give for COc1ccc(-c2csc3ncnc(N4CCN(C(=O)c5ccco5)CC4)c23)cc1 here?
**A.** Its Potency is inconclusive: 4.11 µM [falling, full curve].

**Q.** For CCCCNC(=O)c1ccc2c(c1)N=C(CC)c1ccccc1S2, which “activity change, negative = inhibition” value is on record?
**A.** Its value is inactive: -1.36%.

**Q.** Which “activity change, negative = inhibition” value does the source give for CCc1cccc(CC)c1NC(=O)c1c(C)oc2ccc(O)c(CN3CCCC3)c12 here?
**A.** The value was inactive: 19.6%.

**Q.** For CC(=O)Nc1ccc(S(=O)(=O)N2CCN(CCc3ccccc3)CC2)cc1, which Potency is on record?
**A.** The Potency was inconclusive: 29.1 µM [falling, single point].

**Q.** With NC(=S)N/N=C/c1ccc(-c2ccc(SC(F)F)cc2)o1 as the compound, how does the “activity change, negative = inhibition” value read?
**A.** The value was inactive: -14.3%.

**Q.** Which Potency does the source give for N#Cc1cn(CCCOc2ccccc2)c2ccccc12 here?
**A.** Its Potency is inconclusive: 3.26 µM [activator, partial curve, poor fit].

**Q.** With O=c1cc(-c2ccccc2)oc2ccc(Br)cc12 as the compound, how does the Potency read?
**A.** The Potency was inconclusive: 2.59 µM [activator, full curve, poor fit].

**Q.** Which Potency does the source give for CN1CCN(CCNC(=O)c2cnn(-c3ccc(F)cc3)c2C2CCN(C(=O)OC(C)(C)C)CC2)CC1 here?
**A.** Its Potency is inconclusive: 0.13 µM [activator, full curve, poor fit].

**Q.** With CC(CNC(=O)COc1ccccc1)OC(=O)Nc1cccc(Cl)c1 (stereo not given) as the compound, how does the “activity change, negative = inhibition” value read?
**A.** The value was inactive: -0.383%.

**Q.** Which “activity change, negative = inhibition” value does the source give for COC(=O)c1ccc(C(=O)N2CCCC(CNC(=O)c3ccc(F)cc3)C2)cc1 (stereo not given) here?
**A.** Its value is inactive: 16.2%.

**Q.** For O=C1C(=O)N(C2CCN(C(=O)c3cccc(Cl)c3)CC2)CCN1Cc1ccc(F)cc1, which Potency is on record?
**A.** Its Potency is inconclusive: 29.1 µM [activator, single point].

**Q.** For Oc1cc2c(cc1O)C1c3ccc(O)c(O)c3OCC1(O)C2 (stereo not given), which Potency is on record?
**A.** Its Potency is inconclusive: 25.9 µM [falling, partial curve, poor fit].

**Q.** With CCOC(=O)Cn1cc(/C=C/[N+](=O)[O-])c2ccccc21 as the compound, how does the “activity change, negative = inhibition” value read?
**A.** The value was inactive: -19.2%.

**Q.** With Cc1cc(Oc2ccc(Cl)cc2)nc(-c2ccccn2)n1 as the compound, how does the Potency read?
**A.** The Potency was inconclusive: 16.4 µM [falling, single point].

**Q.** With Nc1nc2ccccc2cc1S(=O)(=O)c1ccccc1 as the compound, how does the Potency read?
**A.** Its Potency is inconclusive: 32.6 µM [falling, partial curve, poor fit].

**Q.** With CC(C)(C)SCCNC(=O)COc1ccccc1 as the compound, how does the Potency read?
**A.** The Potency was inconclusive: 20.6 µM [activator, single point].

**Q.** With COc1cccc(-c2ncc3ccccc3c2COC(=O)c2ccco2)c1 as the compound, how does the Potency read?
**A.** Its Potency is inconclusive: 29.1 µM [falling, single point].

**Q.** For CNc1nnc(Sc2ncccc2[N+](=O)[O-])s1, which Potency is on record?
**A.** Its Potency is inconclusive: 29.1 µM [falling, single point].

**Q.** For COC(=O)CCN(c1ccccc1)C(CNS(=O)(=O)c1ccccc1)c1ccccc1 (stereo not given), which Potency is on record?
**A.** The Potency was inconclusive: 3.66 µM [falling, single point].

**Q.** For CCN1C(=O)[C@@H]2[C@@H](c3ccc(-c4ccc(OC)cc4)c(OC)c3)N3CCCC[C@@]3(C(=O)OC)[C@@H]2C1=O, which Potency is on record?
**A.** Its Potency is inconclusive: 20.6 µM [falling, single point].

**Q.** For CCCc1[nH]c(=O)c(C#N)c2c1COC(C)(C)C2, which “activity change, negative = inhibition” value is on record?
**A.** The value was inactive: 2%.

**Q.** Which Potency does the source give for COc1cc(C(=O)C(=O)c2cc(OC)c(O)c(OC)c2)cc(OC)c1O here?
**A.** Its Potency is inconclusive: 29.1 µM [activator, single point].

**Q.** For COc1cc(/C=C2/C(=N)N3C(SC)=NSC3=NC2=O)ccc1OC(=O)c1ccco1, which Potency is on record?
**A.** The Potency was inconclusive: 13 µM [activator, partial curve, poor fit].

**Q.** Which Potency does the source give for COCCOC(=O)c1c(C)oc2ccc(NS(=O)(=O)c3ccc(F)cc3)cc12 here?
**A.** The Potency was inconclusive: 23.1 µM [falling, single point].

**Q.** Which Potency does the source give for Cn1c(=O)c2c(nc(NCCc3ccccc3)n2Cc2ccc(F)cc2)n(C)c1=O here?
**A.** Its Potency is inconclusive: 16.4 µM [falling, single point].

**Q.** For Cc1ccc(OCCCN2CCOCC2)c([N+](=O)[O-])c1, which Potency is on record?
**A.** The Potency was inconclusive: 5.8 µM [activator, partial curve].

**Q.** For Cc1cc2oc(C(=O)N(Cc3ccc(N(C)C)cc3)Cc3ccco3)c(C)c2cc1Cl, which “activity change, negative = inhibition” value is on record?
**A.** The value was inactive: -7.91%.

**Q.** With COc1ccc(S(=O)(=O)Nc2cc3c4c(oc3c3ccccc23)CCCC4=O)cc1 as the compound, how does the Potency read?
**A.** Its Potency is inconclusive: 16.4 µM [falling, partial curve, poor fit].

**Q.** For CC(=O)C(C(C)=O)c1cc(NS(=O)(=O)c2ccccc2)ccc1NS(=O)(=O)c1ccccc1, which Potency is on record?
**A.** The Potency was inconclusive: 23.1 µM [falling, single point].

**Q.** With Cc1ccccc1Nc1nc(N)c(C(=O)c2ccccc2Cl)s1 as the compound, how does the Potency read?
**A.** The Potency was inconclusive: 20.6 µM [falling, single point].

**Q.** Which Potency does the source give for CC(=O)NCCc1c[nH]c2ccc(OCC(O)CNC(C)(C)C)cc12 (stereo not given) here?
**A.** The Potency was inconclusive: 0.0052 µM [activator, full curve, poor fit].

**Q.** Which Potency does the source give for Cc1ccc(C(=O)Nc2cccc3[nH]c(C(F)(F)F)nc23)cc1 here?
**A.** Its Potency is inconclusive: 20.6 µM [falling, single point].

**Q.** Which Potency does the source give for CCOc1ccc(-c2csc(C3COc4ccccc4O3)n2)cc1 (stereo not given) here?
**A.** Its Potency is inconclusive: 5.8 µM [activator, single point].

**Q.** With Cc1cccc(C2(c3cccc(C)c3)OC(=O)c3ccccc32)c1 as the compound, how does the Potency read?
**A.** Its Potency is inconclusive: 25.9 µM [falling, partial curve, poor fit].

**Q.** For CCN(CC)S(=O)(=O)c1ccc(CNC(=O)CN2C(=O)NC3(CCc4ccccc43)C2=O)cc1 (stereo not given), which “activity change, negative = inhibition” value is on record?
**A.** The value was inactive: -5.28%.

**Q.** With CC1CCC/C(=N/Nc2nc3ccccc3s2)C1 (stereo not given) as the compound, how does the Potency read?
**A.** Its Potency is inconclusive: 13 µM [activator, partial curve, poor fit].

**Q.** For N#Cc1ccc(Oc2ncccn2)cc1, which “activity change, negative = inhibition” value is on record?
**A.** Its value is inactive: 1.26%.

**Q.** For Cc1ccc(-c2nc(NC(=O)CSc3nnc(C)s3)ns2)cc1, which “activity change, negative = inhibition” value is on record?
**A.** Its value is inactive: 3.7%.

**Q.** For O=C(NCc1ccco1)c1cccnc1Cl, which Potency is on record?
**A.** Its Potency is inconclusive: 2.91 µM [activator, partial curve, poor fit].

**Q.** Which Potency does the source give for CCc1ccc2nc(N(CCN(C)C)C(=O)c3ccc4ncsc4c3)sc2c1 here?
**A.** Its Potency is inconclusive: 2.91 µM [activator, partial curve, poor fit].

**Q.** For COc1cccc(-c2cc(C(F)(F)F)n3ncc(C(=O)N4CCc5ccccc5C4)c3n2)c1, which “activity change, negative = inhibition” value is on record?
**A.** Its value is inactive: -0.835%.

**Q.** With C=C1CCN(C(CC(C)C)C(=O)Nc2nc3ccc(Cl)cc3s2)S(=O)(=O)c2ccccc21 (stereo not given) as the compound, how does the Potency read?
**A.** The Potency was inconclusive: 29.1 µM [falling, single point].

**Q.** With O=C(NCC1CCCCC1)c1cccnc1 as the compound, how does the Potency read?
**A.** Its Potency is inconclusive: 6.51 µM [activator, single point].

**Q.** For CCOC(=O)N1CCN(Cc2nc(CC3CC3)no2)CC1, which Potency is on record?
**A.** The Potency was inconclusive: 29.1 µM [activator, single point].

**Q.** For COc1ccc(CN(C(=O)CSc2nnc(-c3ccccc3F)o2)c2ccc(F)cc2)cc1, which Potency is on record?
**A.** Its Potency is active: 20.6 µM.

**Q.** For COc1cccc(CN2CC(C(=O)N3CCOCC3)CCC2=O)c1 (stereo not given), which Potency is on record?
**A.** Its Potency is inconclusive: 10.3 µM [activator, partial curve].

**Q.** With COc1ccc(N2CC(C(=O)N3CCC4(CC3)CC(=O)c3ccccc3O4)CC2=O)cc1 (stereo not given) as the compound, how does the Potency read?
**A.** The Potency was inconclusive: 23.1 µM [falling, single point].

**Q.** For CCCCCCn1c(=O)[nH]c2c(c1=O)CCC2, which Potency is on record?
**A.** Its Potency is inconclusive: 2.06 µM [falling, partial curve, poor fit].

**Q.** For O=C(CSc1ccc(-c2ccccc2)nn1)N1CCN(c2ccccc2)CC1, which “activity change, negative = inhibition” value is on record?
**A.** Its value is inactive: -15.9%.
